Experimental data published in PubChem BioAssay (EPA / NIEHS).
The inconclusive results got no clear call from the source; some entries with a clear call stand among them for comparison. Potencies of inconclusive entries are doubtful fits and often do not repeat. Active and inactive are the calls of the source. Rule for the calls: active = hit-call score of the fitted dose curve at least 0.9, where 1 is the maximum; inconclusive = response in the unintended direction; inactive = score below 0.9.

Read-out: organic anion transporter (SLCO1B1), SLCO1B1 (gene 10599)
Test: CLD_SLCO1B1_24hr: CellzDirect (CLD) Gene Expression Assay for organic anion transporter (SLCO1B1) at 24 hours (AID 2283690)
Method: CLD_24hr is a cell-based, multiplexed-readout assay that uses hepatocyte, a human liver primary cell, with measurements taken at 24 hours after chemical dosing in a 96-well plate.CLD_SLCO1B1_24hr is one of 16 assay component(s) measured or calculated from the CLD_24hr assay. It is designed to make measurements of mRNA induction, a form of inducible reporter, as detected with chemiluminescence signals by Quantitative Nuclease Protection Assay (qNPA) technology.Data from the assay component CLD_SLCO1B1_24hr was analyzed at the endpoint, CLD_SLCO1B1_24hr, in the positive analysis fitting direction relative to DMSO as the negative control and baseline of activity. Using a type of inducible reporter, gain-of-signal activity can be used to understand changes in the reporter gene as they relate to the gene SLCO1B1. Furthermore, this assay endpoint can be referred to as a primary readout. To generalize the intended target to other relatable targets, this assay endpoint is annotated to the transporter intended target family, where subfamily is organic anion transporter.
Human hepatocyte cultures were treated daily for two consecutive days with fresh dosing solutions containing appropriate concentrations of the 320 ToxCast chemicals (chemical identities were blinded to CellzDirect and other ToxCast collaborators), vehicle control (0.2% DMSO), and positive control inducers as summarized in Table 1. Due to the large number of treatment groups and chemicals examined, the ToxCast chemicals were divided into two groups (spanning two independent cultures of hepatocytes from separate donor preparations (Hu778: ToxCast plates 1 and 2; Hu776: ToxCast plates 3 and 4). Each preparation of human hepatocyte cultures was treated with respective vehicle control, medium only control, set of six positive controls/reference chemicals for the five hepatic receptor pathways, and a subset of eight of the ToxCast chemicals (indoxacarb, pyrithiobac-sodium, norflurazon, cyhalofop-butyl, methomyl, thiram, acetochlor, and propiconazole). These replicate data, coupled with internal replicates designed within the blinded ToxCast chemical library, provided additional data to evaluate interindividual differences between hepatocyte preparations and their potential impact on chemical profiles.Cell morphology and integrity were evaluated using phase-contrast microscopy as an indicator of hepatocyte cell health (Tyson & Green, 1987). Cultures for each treatment group (i.e., media, vehicle [0.2% DMSO], positive control inducers [multiple concentrations], and the ToxCast chemicals [multiple concentrations]) were observed and cell morphology was assessed relative to vehicle control cultures at each harvest time point (0, 6, 24, or 48 h). […] Images were evaluated at the conclusion of the study to assess changes in cell integrity and account for the effects of chemical exposure on uncharacteristic changes in concentration-dependent gene expression profiles. The results from these determinations of apparent cytotoxicity were annotated (yes/no) alongside the corresponding qNPA data for reference.At the conclusion of each treatment period, hepatocyte cultures (96-well) were washed with 1 volume of HBSS, lysed by addition of 25 ul ArrayPlate lysis buffer (HTG, Tucson, AZ), and 70 ul/well of Denaturation Oil, denatured by incubation at 95C for 10 min, and frozen at approximately -70C until analysis by nuclease protection assay (qNPA) (Roberts et al., 2007). For qNPA analysis, cell lysates were thawed at 50C for approximately 30 min, qNPA probes were added, and samples were incubated at 95C for 10 min to begin the detection process by denaturing the target RNA, dissociating the duplexes and secondary structure hybridization. At the conclusion of the hybridization period, S1 nuclease reagent was added to each sample to digest all nonprotected nucleotides at 50C for 60-90 min. […]

SMILES | AC50 | outcome
COc1nc(C)nc(NC(=O)NS(=O)(=O)c2ccccc2OCCCl)n1 | inconclusive: 91.7 nM | 
CCCCCOC(=O)COc1cc(N2C(=O)C3=C(CCCC3)C2=O)c(F)cc1Cl | inconclusive: 20000 nM | 
CCCOC(=O)c1ccc(C(=O)OCCC)nc1 | inconclusive: 20000 nM | 
CSC(=O)c1cccc2nnsc12 | inconclusive: 20000 nM | 
COCCO |  | inactive
CN(C)C(=O)Nc1ccc(Cl)c(Cl)c1 | inconclusive: 6030 nM | 
CC(C)(c1ccc(O)cc1)c1ccc(O)cc1 | inconclusive: 20000 nM | 
O=C(O)C1(C(=O)Nc2ccc(Cl)cc2Cl)CC1 | inconclusive: 2000 nM | 
COC(=O)c1ccccc1C(=O)O | inconclusive: 13.5 nM | 
N#CSCSc1nc2ccccc2s1 | inconclusive: 13.8 nM | 
CCOC(=O)C(C)Oc1ccc(Oc2cnc3cc(Cl)ccc3n2)cc1 (stereo not given) | inconclusive: 6.91 nM | 
c1ccc2[nH]c(-c3cscn3)nc2c1 | inconclusive: 3850 nM | 
CCOC(=O)COc1cc(-n2ncc(C(F)(F)F)c(C)c2=O)c(F)cc1Cl | inconclusive: 339 nM | 
CCCCOC(=O)C(C)Oc1ccc(Oc2ccc(C(F)(F)F)cn2)cc1 (stereo not given) | inconclusive: 190 nM | 
Cc1nn(C)c(Oc2ccccc2)c1C=NOCc1ccc(C(=O)OC(C)(C)C)cc1 | inconclusive: 0.4 nM | 

Two records picked at random from those above, as already listed:
SMILES | AC50 | outcome
CC(C)(c1ccc(O)cc1)c1ccc(O)cc1 | inconclusive: 20000 nM | 
CCOC(=O)C(C)Oc1ccc(Oc2cnc3cc(Cl)ccc3n2)cc1 (stereo not given) | inconclusive: 6.91 nM | 
